Source: PubChem BioAssay AID652243 (Drosophila RNAi Screening Center, 2013)

Aim: 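Fly genes required for human androgen receptor driven transcription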 (primary screen)
System: Drosophila S2R+ cells
Knock-down reagent: long dsRNA against Drosophila genes
Timing: 72 h (48 h, then 24 h hormone)
Conditions: synthetic androgen R1881 at 10 nM for 24 h
Measurement: 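Per-well raw luminescence of the androgen-driven firefly reporter and of the Renilla control, two replicates each, without normalisation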
Direction: firefly reporter light: higher = more light from androgen-responsive reporter; Renilla control light: higher = more constitutive control signal (cell number, transfection)
Call rule: 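Across duplicate plates, a knock-down whose log firefly/Renilla ratio shifted a set fold down or up from the GFP/LacZ control mean was a hit; the downward cut appears as both 1.5 and 3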
Meaning of the calls: active = hit: reporter lowered or raised; inactive = no hit
The screen tested about 24,000 reagents; shown is an unselected part of those that have a named target and a result. In the full data, 246 (1%) were called active. 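Plates not normalised; calls are printed but the firefly/Renilla ratio behind them is not deposited; fold cut for lowering reported inconsistently.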 Raw values vary from plate to plate and are shown uncorrected. Names joined by + are all predicted targets of the reagent. Not stated in the record: the amount of reagent.

| gene | dsRNA | firefly reporter light, replicate 1 | firefly reporter light, replicate 2 | Renilla control light, replicate 1 | Renilla control light, replicate 2 | activity call |
| --- | --- | --- | --- | --- | --- | --- |
| Klp64D | DRSC11204 | 1.96e5 | 2.78e5 | 2.29e6 | 3.64e6 | inactive |
| CG17217 | DRSC02592 | 2.37e5 | 2.41e5 | 1.86e6 | 2.14e6 | inactive |
| CG9294 | DRSC04537 | 2.10e5 | 2.11e5 | 1.63e6 | 1.23e6 | inactive |
| CG34458 | DRSC06925 | 97408 | 1.31e5 | 2.00e6 | 2.00e6 | inactive |
| CG14857 | DRSC14981 | 1.12e5 | 1.29e5 | 2.27e6 | 2.50e6 | inactive |
| CG8001 | DRSC08611 | 1.51e6 | 7.62e5 | 1.50e6 | 8.78e5 | inactive |
| CG34302 | DRSC38824 | 1.09e6 | 9.93e5 | 1.88e6 | 1.75e6 | inactive |
| mip120 | DRSC06960 | 97355 | 1.22e5 | 2.72e6 | 2.72e6 | inactive |
| mip120 | DRSC29182 | 7.37e5 | 6.23e5 | 1.77e6 | 1.98e6 | inactive |
| CG1138 | DRSC12530 | 50990 | 74829 | 1.08e6 | 1.00e6 | inactive |
| Nlp | DRSC16759 | 56124 | 45279 | 6.82e5 | 4.17e5 | inactive |
| Nlp | DRSC26421 | 2.27e5 | 3.09e5 | 4.11e5 | 7.05e5 | inactive |
| Atg18b | DRSC03108 | 7.65e5 | 5.57e5 | 2.11e6 | 2.06e6 | inactive |
| Atg18b | DRSC28594 | 4.54e5 | 4.37e5 | 1.68e6 | 1.49e6 | inactive |
| CG5447 | DRSC15801 | 2.38e5 | 2.13e5 | 3.12e6 | 3.06e6 | inactive |
| CG5447 | DRSC26407 | 3.35e5 | 2.16e5 | 7.34e5 | 5.09e5 | inactive |
| Orct2 | DRSC14613 | 29722 | 38953 | 3.82e5 | 4.91e5 | inactive |
| Orct2 | DRSC24714 | 1.08e6 | 1.16e6 | 1.44e6 | 1.46e6 | inactive |
| kek5 | DRSC19438 | 81260 | 48041 | 1.58e5 | 1.27e5 | inactive |
| kek5 | DRSC24470 | 3.35e5 | 4.09e5 | 4.63e5 | 5.84e5 | inactive |
| kek5 | DRSC39004 | 4.74e5 | 4.76e5 | 1.62e6 | 1.70e6 | inactive |
| Hus1-like | DRSC12353 | 53625 | 92924 | 1.79e6 | 1.31e6 | inactive |
| CG11737 | DRSC14364 | 70421 | 65149 | 1.72e6 | 1.44e6 | inactive |
| Hsp26 | DRSC11189 | 9.81e5 | 4.76e5 | 1.40e6 | 6.53e5 | inactive |
| mre11 | DRSC03570 | 3.71e5 | 3.09e5 | 3.41e6 | 3.06e6 | inactive |
| mre11 | DRSC22628 | 6.60e5 | 6.15e5 | 1.13e6 | 1.25e6 | inactive |
| mre11 | DRSC26311 | 3.91e5 | 4.01e5 | 5.48e5 | 5.74e5 | inactive |
| CG3448 | DRSC10368 | 1.47e5 | 1.19e5 | 1.19e6 | 1.14e6 | inactive |
| CG3448 | DRSC27580 | 4.14e5 | 2.43e5 | 7.20e5 | 4.45e5 | inactive |
| Got2 | DRSC00643 | 7.68e5 | 1.05e6 | 2.18e6 | 2.30e6 | inactive |
| Or2a | DRSC18690 | 2.73e5 | 2.18e5 | 3.75e6 | 3.46e6 | inactive |
| CG9399 | DRSC16488 | 1.68e5 | 1.52e5 | 3.79e6 | 3.06e6 | inactive |
| CG7840 | DRSC03075 | 9.24e5 | 1.01e6 | 2.52e6 | 2.52e6 | inactive |
| RluA-1 | DRSC02240 | 1.24e5 | 1.48e5 | 1.26e6 | 8.38e5 | inactive |
| RluA-1 | DRSC03060 | 2.65e5 | 1.66e5 | 2.01e6 | 1.38e6 | inactive |

The list goes on, starting with the last 3 of the part before.
| gene | dsRNA | firefly reporter light, replicate 1 | firefly reporter light, replicate 2 | Renilla control light, replicate 1 | Renilla control light, replicate 2 | activity call |
| --- | --- | --- | --- | --- | --- | --- |
| CG7840 | DRSC03075 | 9.24e5 | 1.01e6 | 2.52e6 | 2.52e6 | inactive |
| RluA-1 | DRSC02240 | 1.24e5 | 1.48e5 | 1.26e6 | 8.38e5 | inactive |
| RluA-1 | DRSC03060 | 2.65e5 | 1.66e5 | 2.01e6 | 1.38e6 | inactive |
| Pkn + Tsen15 | DRSC21969 | 4.00e5 | 5.66e5 | 1.27e6 | 1.56e6 | inactive |
| Pkn + Tsen15 | DRSC27376 | 2.99e5 | 3.19e5 | 6.91e5 | 8.36e5 | inactive |
| gogo | DRSC10070 | 2.05e5 | 1.53e5 | 1.64e6 | 1.50e6 | inactive |
| gogo | DRSC10071 | 2.60e5 | 2.35e5 | 2.30e6 | 1.98e6 | inactive |
| Dgat2 | DRSC06803 | 1.20e6 | 1.35e6 | 2.09e6 | 2.22e6 | inactive |
| CG14511 | DRSC14863 | 1.31e5 | 1.84e5 | 1.20e6 | 2.14e6 | inactive |
| CG14511 | DRSC26574 | 2.31e5 | 2.15e5 | 6.56e5 | 7.34e5 | inactive |
| CG13733 | DRSC10061 | 2.01e5 | 1.49e5 | 1.95e6 | 1.90e6 | inactive |
| pncr011:3L (retired record) | DRSC37775 | 5.35e5 | 5.98e5 | 1.12e6 | 1.08e6 | inactive |
| pncr011:3L (retired record) | DRSC39123 | 8.07e5 | 7.49e5 | 1.96e6 | 1.26e6 | inactive |
| Pebp1 | DRSC15354 | 2.74e5 | 3.50e5 | 3.58e6 | 3.86e6 | inactive |
| Patr-1 | DRSC14159 | 18567 | 18387 | 2.78e5 | 3.49e5 | active |
| Patr-1 | DRSC26481 | 3.25e5 | 1.82e5 | 7.52e5 | 6.88e5 | inactive |
| ph-d | DRSC23191 | 4.65e5 | 5.52e5 | 1.47e6 | 1.60e6 | inactive |
| ph-d | DRSC29736 | 4.08e5 | 3.57e5 | 8.01e5 | 1.27e6 | inactive |
| Vha68-1 | DRSC03470 | 3.33e5 | 2.78e5 | 2.23e6 | 2.32e6 | inactive |
| CG11180 | DRSC06055 | 1.07e6 | 1.05e6 | 1.97e6 | 1.92e6 | inactive |
| CG11180 | DRSC28153 | 2.46e5 | 3.21e5 | 7.90e5 | 9.55e5 | inactive |
| Met | DRSC20284 | 5.09e5 | 4.44e5 | 2.91e6 | 2.55e6 | inactive |
| Met | DRSC27106 | 3.81e5 | 2.05e5 | 4.01e5 | 1.02e5 | inactive |
| lectin-46Ca | DRSC06612 | 4.42e5 | 4.19e5 | 2.50e6 | 2.43e6 | inactive |
| lectin-46Ca | DRSC25469 | 2.43e5 | 3.05e5 | 4.38e5 | 4.28e5 | inactive |
| Cby | DRSC14591 | 1.99e5 | 2.00e5 | 2.60e6 | 3.00e6 | inactive |
